{
  "source": "the supplement of paper PMC8728848",
  "test_in_all_cases": "glycan array binding signal (z-score within array); higher = stronger binding",
  "conditions_in_all_cases": "glycan notation: IUPAC condensed, linker removed",
  "key": {"[1]": {"target": "Fuc(a1-3)[Gal3S(b1-4)]GlcNAc6S", "summary_of_the_method": "(§1)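 The binding signal is a Z-score computed within each array. Data were drawn from 3228 arrays in the Consortium for Functional Glycomics database, restricted to those with a known protein sequence. Scores were averaged over arrays of the same protein sequence at different concentrations or buffers, and over linkers, and negative values can be taken as non-binding.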"}, "[2]": {"target": "Fuc(a1-3)[GalNAc(b1-4)]GlcNAc", "summary_of_the_method": "as §1"}, "[3]": {"target": "Fuc(a1-3)[GalNAc(b1-4)]GlcNAc6S", "summary_of_the_method": "as §1"}, "[4]": {"target": "Fuc(a1-4)GlcNAc", "summary_of_the_method": "as §1"}, "[5]": {"target": "Fuc(b1-3)GlcNAc", "summary_of_the_method": "as §1"}, "[6]": {"target": "Gal(a1-2)Gal", "summary_of_the_method": "as §1"}, "[7]": {"target": "Gal(a1-3)Gal", "summary_of_the_method": "as §1"}, "[8]": {"target": "Gal(a1-3)Gal(b1-3)GlcNAc", "summary_of_the_method": "as §1"}, "[9]": {"target": "Gal(a1-3)Gal(b1-3)GlcNAc(b1-2)Man", "summary_of_the_method": "as §1"}, "[10]": {"target": "Gal(a1-3)Gal(b1-3)GlcNAc(b1-2)Man(a1-3)[Gal(a1-3)Gal(b1-3)GlcNAc(b1-2)Man(a1-6)]Man(b1-4)GlcNAc(b1-4)GlcNAc", "summary_of_the_method": "as §1"}, "[11]": {"target": "Gal(a1-3)Gal(b1-3)GlcNAc(b1-3)GalNAc", "summary_of_the_method": "as §1"}, "[12]": {"target": "Gal(a1-3)Gal(b1-3)GlcNAc(b1-6)GalNAc", "summary_of_the_method": "as §1"}, "[13]": {"target": "Gal(a1-3)Gal(b1-3)[Fuc(a1-4)]GlcNAc(b1-2)Man(a1-3)[Gal(a1-3)Gal(b1-3)[Fuc(a1-4)]GlcNAc(b1-2)Man(a1-6)]Man(b1-4)GlcNAc(b1-4)GlcNAc", "summary_of_the_method": "as §1"}, "[14]": {"target": "Gal(a1-3)Gal(b1-4)Glc", "summary_of_the_method": "as §1"}, "[15]": {"target": "Gal(a1-3)Gal(b1-4)GlcNAc", "summary_of_the_method": "as §1"}, "[16]": {"target": "Gal(a1-3)Gal(b1-4)GlcNAc(b1-2)Man", "summary_of_the_method": "as §1"}, "[17]": {"target": "Gal(a1-3)Gal(b1-4)GlcNAc(b1-2)Man(a1-3)[Gal(a1-3)Gal(b1-4)GlcNAc(b1-2)Man(a1-6)]Man(b1-4)GlcNAc(b1-4)GlcNAc", "summary_of_the_method": "as §1"}, "[18]": {"target": "Gal(a1-3)Gal(b1-4)GlcNAc(b1-3)GalNAc", "summary_of_the_method": "as §1"}, "[19]": {"target": "Gal(a1-3)Gal(b1-4)GlcNAc(b1-6)GalNAc", "summary_of_the_method": "as §1"}, "[20]": {"target": "Gal(a1-3)Gal(b1-4)[Fuc(a1-3)]GlcNAc", "summary_of_the_method": "as §1"}, "[21]": {"target": "Gal(a1-3)Gal(b1-4)[Fuc(a1-3)]GlcNAc(b1-2)Man(a1-3)[Gal(a1-3)Gal(b1-4)[Fuc(a1-3)]GlcNAc(b1-2)Man(a1-6)]Man(b1-4)GlcNAc(b1-4)GlcNAc", "summary_of_the_method": "as §1"}, "[22]": {"target": "Gal(a1-3)GalNAc", "summary_of_the_method": "as §1"}, "[23]": {"target": "Gal(a1-3)[Gal(a1-4)]Gal(b1-4)GlcNAc", "summary_of_the_method": "as §1"}, "[24]": {"target": "Gal(a1-4)Gal(b1-3)GlcNAc(b1-2)Man(a1-3)[Gal(a1-4)Gal(b1-3)GlcNAc(b1-2)Man(a1-6)]Man(b1-4)GlcNAc(b1-4)GlcNAc", "summary_of_the_method": "as §1"}, "[25]": {"target": "Gal(a1-4)Gal(b1-4)Glc", "summary_of_the_method": "as §1"}, "[26]": {"target": "Gal(a1-4)Gal(b1-4)GlcNAc", "summary_of_the_method": "as §1"}, "[27]": {"target": "Gal(a1-4)Gal(b1-4)GlcNAc(b1-2)Man(a1-3)[Gal(a1-4)Gal(b1-4)GlcNAc(b1-2)Man(a1-6)]Man(b1-4)GlcNAc(b1-4)GlcNAc", "summary_of_the_method": "as §1"}, "[28]": {"target": "Gal(a1-4)Gal(b1-4)GlcNAc(b1-3)Gal(b1-4)Glc", "summary_of_the_method": "as §1"}, "[29]": {"target": "Gal(a1-4)GlcNAc", "summary_of_the_method": "as §1"}, "[30]": {"target": "Gal(a1-6)Glc", "summary_of_the_method": "as §1"}, "[31]": {"target": "Gal(b1-2)Gal", "summary_of_the_method": "as §1"}, "[32]": {"target": "Gal(b1-3)Gal", "summary_of_the_method": "as §1"}, "[33]": {"target": "Gal(b1-3)Gal(b1-4)GlcNAc", "summary_of_the_method": "as §1"}, "[34]": {"target": "Gal(b1-3)GalNAc", "summary_of_the_method": "as §1"}, "[35]": {"target": "Gal(b1-3)GalNAc(a1-3)[Fuc(a1-2)]Gal(b1-4)Glc", "summary_of_the_method": "as §1"}, "[36]": {"target": "Gal(b1-3)GalNAc(a1-3)[Fuc(a1-2)]Gal(b1-4)GlcNAc", "summary_of_the_method": "as §1"}, "[37]": {"target": "Gal(b1-3)GalNAc(b1-3)Gal", "summary_of_the_method": "as §1"}},
  "note": "The list shows a part of the results.",
  "data": [
    {"binder": "PX9961Q-bfa-504-27-504 (Bacteroides fragilis) (protein) NDWLDRKPADGIPSEDAITNYNDALTARTGMYDGIQGNSNATSYYGARMFYYGDVRADDMQARTQGMRSSSCYEMLYTVDDAPNMWNIPYNVIRRANRLIEAINEKKVTDATEAQIGKIYSEALVVRALVHFDLVRIYGMPYTADNGASLGVPVIVKPLERNDLPSRNTVAEVYTQVITDLTDAINSGYLAKDQTPGYINEWAAKALLTRVYLTKGDNENALKVAEDIITNSPYKLWTNEEYVNAWYKSNGAHTNEMIFEVVNASNDDWTDRNGIAYLLNENGYADAIVTKSFMNMLSQDPKDVRIGMVLPAQYDKDLQEEYGDAKIFINKFPADKDDVGEMRLNNLPLLRLSEVYLSAAEAAAKLGGHQDKAAKYLNEIVQRANPEAKAISEADATVERIILERRKEMIGEGQRYFDALRNNETIVRYKDEGDKGYHYSLIKESQSFDRTYFRAILPIPVDETNVNPNLRAQQNPGY", "values": [
      {"measurement": "glycan array binding signal (z-score)", "setting": "[1]", "value": -0.537},
      {"measurement": "glycan array binding signal (z-score)", "setting": "[2]", "value": 0.276},
      {"measurement": "glycan array binding signal (z-score)", "setting": "[3]", "value": -0.385},
      {"measurement": "glycan array binding signal (z-score)", "setting": "[4]", "value": -0.039},
      {"measurement": "glycan array binding signal (z-score)", "setting": "[5]", "value": -0.126},
      {"measurement": "glycan array binding signal (z-score)", "setting": "[6]", "value": 0.399},
      {"measurement": "glycan array binding signal (z-score)", "setting": "[7]", "value": 0.757},
      {"measurement": "glycan array binding signal (z-score)", "setting": "[8]", "value": 0.784},
      {"measurement": "glycan array binding signal (z-score)", "setting": "[9]", "value": -0.818},
      {"measurement": "glycan array binding signal (z-score)", "setting": "[10]", "value": 0.772},
      {"measurement": "glycan array binding signal (z-score)", "setting": "[11]", "value": -0.341},
      {"measurement": "glycan array binding signal (z-score)", "setting": "[12]", "value": 0.225},
      {"measurement": "glycan array binding signal (z-score)", "setting": "[13]", "value": 8.13},
      {"measurement": "glycan array binding signal (z-score)", "setting": "[14]", "value": -0.621},
      {"measurement": "glycan array binding signal (z-score)", "setting": "[15]", "value": -0.489},
      {"measurement": "glycan array binding signal (z-score)", "setting": "[16]", "value": 0.2},
      {"measurement": "glycan array binding signal (z-score)", "setting": "[17]", "value": -0.179},
      {"measurement": "glycan array binding signal (z-score)", "setting": "[18]", "value": -0.389},
      {"measurement": "glycan array binding signal (z-score)", "setting": "[19]", "value": 0.211},
      {"measurement": "glycan array binding signal (z-score)", "setting": "[20]", "value": -0.616},
      {"measurement": "glycan array binding signal (z-score)", "setting": "[21]", "value": 1.6},
      {"measurement": "glycan array binding signal (z-score)", "setting": "[22]", "value": -0.069},
      {"measurement": "glycan array binding signal (z-score)", "setting": "[23]", "value": -0.251},
      {"measurement": "glycan array binding signal (z-score)", "setting": "[24]", "value": 2.6},
      {"measurement": "glycan array binding signal (z-score)", "setting": "[25]", "value": 0.623},
      {"measurement": "glycan array binding signal (z-score)", "setting": "[26]", "value": 0.049},
      {"measurement": "glycan array binding signal (z-score)", "setting": "[27]", "value": 0.691},
      {"measurement": "glycan array binding signal (z-score)", "setting": "[28]", "value": -0.875},
      {"measurement": "glycan array binding signal (z-score)", "setting": "[29]", "value": -0.289},
      {"measurement": "glycan array binding signal (z-score)", "setting": "[30]", "value": 0.597},
      {"measurement": "glycan array binding signal (z-score)", "setting": "[31]", "value": 0.024},
      {"measurement": "glycan array binding signal (z-score)", "setting": "[32]", "value": -0.179},
      {"measurement": "glycan array binding signal (z-score)", "setting": "[33]", "value": -0.515},
      {"measurement": "glycan array binding signal (z-score)", "setting": "[34]", "value": 0.027},
      {"measurement": "glycan array binding signal (z-score)", "setting": "[35]", "value": 0.361},
      {"measurement": "glycan array binding signal (z-score)", "setting": "[36]", "value": -0.249},
      {"measurement": "glycan array binding signal (z-score)", "setting": "[37]", "value": -0.301}
    ]}
  ]
}
